Percent effect of library compounds

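Phenotypic screen: M. tuberculosis growth, glucose 7H9 medium, 3 days; the read-out is not stated. Compounds at 50 µM. Higher reads as more growth inhibition (inferred: compounds with an IC50 in retests scored well above the rest). Of about 69,000 compounds tested this way, about 760 (1.1%) reached 50% or more in at least one test.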

Each number is a percent effect as filed. The controls that fix the scale are not given in the record; negative values are as filed. Compounds were drawn at random from those tested, without regard to their results. Two or more numbers in one place are separate tests of the same structure; such repeats can differ widely.

With Cc1n[nH]cc1C(=O)N1CCCC(n2nnc3cc(F)ccc32)C1 (stereo not shown) the screen gave 20.76%.
With [H][C@@]12C[C@H](O)CCN1C(=O)CN(CCSc1ccccn1)C2=O the screen gave -12.27%.
With CCOc1ccc2cc(C(=O)NCCC(=O)N(C)C)[nH]c2c1 the screen gave -22.3%.
With CC1(C)Cc2ccccc2-c2nc(NCCO)[nH]c(=O)c21 the screen gave 6.121% & -29.37%.
With CNC(=O)c1nc(CC(=O)Nc2cccc(C(F)(F)F)c2)no1 the screen gave -17.95% & -10.03%.
With COc1ccc(S(=O)(=O)NCc2cccnc2N(C)C)cc1 the screen gave -14.04%.
With COc1ccc(CC(C)(O)CNC(=O)c2cccs2)cc1 (stereo not shown) the screen gave 35.58%.
With O=C1CSC(c2cccs2)c2cnn(C3CCCC3)c2N1 (stereo not shown) the screen gave 0.235%.
With CN(Cc1cnc(N)nc1)CC1CCCN(CCc2ccc(Cl)cc2)C1 (stereo not shown) the screen gave 2.34%.
With CS(=O)(=O)c1ccc(-c2cnc(C3CCCN3)cn2)cc1.Cl (stereo not shown) the screen gave -28.51%.
With CCN1CCC(CNCc2cc(OC)ccc2OC)C1 (stereo not shown) the screen gave 3.2%.
With CCOCC1CN(C(=O)Cc2cccs2)Cc2ccnn2C1 (stereo not shown) the screen gave 17.01%.
With Cc1nn(C)cc1-c1nn2c(C(F)(F)F)nnc2s1 the screen gave 10.91%.
With [H][C@@]12CN(Cc3ccoc3)CCO[C@]1([H])CN(C(=O)CC1CCCC1)C2 the screen gave -9.012%.
With CCOC(=O)C1CSCCN1C(=O)c1ccc(-n2nc(C)cc2C)cc1 (stereo not shown) the screen gave -44%.
With O=C(O)C(F)(F)F.[H][C@]12CCC[C@@H](CN(C)C3CC3)[C@@]1([H])CN(c1cc(OC)ncn1)C2 the screen gave 12.63%.
With O=C(O)C(F)(F)F.O=C(O)C(F)(F)F.O=C(c1cnc2n1CCN(Cc1ccccc1)C2)N1CCCC1 the screen gave -35.09%.
With O=C(O)C(F)(F)F.c1ccc(CN2Cc3[nH]nc(COCC4CC4)c3C2)nc1 the screen gave -5.351% & -9.104%.
With [H][C@@]12CCCCCN(C)[C@@]1([H])[C@H](c1ccccc1)CN2S(=O)(=O)C(C)C the screen gave 14.23%.
With CCC1CN(c2cnn(-c3ccccc3)c(=O)c2Cl)CCO1 (stereo not shown) the screen gave -11.86%.
With CCc1noc(C(C)N2CCC(NC(=O)c3ccc(C)s3)CC2)n1 (stereo not shown) the screen gave 6.459%.
With CC(C)NC(=O)C1CN(Cc2ccsc2)Cc2ccnn2C1.O=C(O)C(F)(F)F.O=C(O)C(F)(F)F (stereo not shown) the screen gave 4.457% & 8.486%.
With O=S(=O)(N(Cc1ccccn1)C1CC1)N1CCCC1c1ccco1 (stereo not shown) the screen gave 35.14%.
With CN(C)CCn1c(=O)oc2ccc(NC(=O)C3CCCO3)cc21 (stereo not shown) the screen gave -4.923%.
With CSCC(=O)N1CCc2nc(C)nc(NCc3ccccc3)c2CC1 the screen gave -7.333%.
With Cc1cc(C(=O)N2CCCC(n3cncn3)C2)on1 (stereo not shown) the screen gave -19.35%.
With CCC(CO)N(Cc1ccsc1)CC1CC1 (stereo not shown) the screen gave -15.94%.
With COCc1nc(-c2ccnc(N3CCNCC3)n2)no1.Cl.Cl the screen gave 11.5% & 15.12%.
With CCC(=O)NC1CCCN(C(=O)Nc2cccc(COC(C)C)c2)C1 (stereo not shown) the screen gave 7.102%.
With CC(C)(C(=O)NCCCC(N)=O)c1cccc(Br)c1 the screen gave 19.84% & -0.2521%.
With COc1ccc(NC(=O)NC(C)Cn2cccn2)cn1 (stereo not shown) the screen gave -25.36%.
With Cc1cc(C2CCCCN2C(=O)c2cccn2C)nc2nccn12 (stereo not shown) the screen gave -4.981%.
With CN(C)[C@H]1CN(C(=O)CCc2cccc(F)c2)C[C@@H]1C1CC1 the screen gave -1.392%.
With [H][C@@]12CS(=O)(=O)C[C@]1([H])N(Cc1ccc(OC)c(O)c1)CCN2CC1CC1 the screen gave -4.114%.
With COC(C)(C)CNC(=O)c1cn(-c2cccc(Cl)c2F)nn1 the screen gave 35.56%.
With COCc1noc(Cn2c(=O)[nH]c3ccccc32)n1 the screen gave -18.59%.
With Cc1nn(CCC(=O)N2CCN(Cc3cnn(C)c3C)CC2)c(C)c1Br the screen gave -5.763%.
With CCOc1cc([C@@H]2N[C@H](c3nccs3)Cc3ccsc32)ccc1OC the screen gave 0.1903%.

Measurements from “University of Dundee, Small-Polar-MMV Screening Library” (2021), ChEMBL document CHEMBL3988442.